The list shows a part of the results. The main result of the screen is listed elsewhere. These columns were measured beside it and carry no call. The list favours compounds with an active or inconclusive main result. Potencies come from curve fits of mixed quality, noted in brackets.
Test: qHTS Assay for Lipid Storage Modulators in Drosophila S3 Cells;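 on cell number change: cells counted by Cell Tracker Red CMTPX staining in the red channel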
Conditions: BODIPY lipid droplet fluorescence, 18-24 h; for cell number change: measured here: cell count max response, cells fed with added oleic acid
Procedure, shortened: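 Laser-scanning cytometry quantifies lipid droplet accumulation (500–530 nm total intensity; droplet/cell object ratio) in oleic acid-fed (400 uM added) Drosophila S3 cells treated with a concentration series. 20 uM Triacsin C defined 100% inhibition.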

[1] = measured here: cell number channel AC50, cells fed with added oleic acid
[2] = measured here: lipid fluorescence (Fed channel) AC50, cells fed with added oleic acid

Compound | cell number change [%] | AC50 [1] | AC50 [2]
O=C(CN1CCN(C(=O)c2ccc(-c3nc4ccccc4s3)o2)CC1)Nc1ccccc1Cl | -41.9 | 20.6 µM [falling, single point] | 4.11 µM [falling, single point]
C=CCNC(=S)N/N=C/c1ccc(OCc2ccccc2Cl)cc1 | 7.9 |  | 14.6 µM [rising, partial curve, poor fit]
CC(C)(C)c1nnc(NC(=O)Cc2ccccc2[N+](=O)[O-])s1 | -20.7 |  | 3.26 µM [falling, single point]
CN=CC1=C(O)c2ccccc2C1=O | 25.1 |  | 3.66 µM [rising, full curve]
Cn1c(=O)n(C)c2cc([N+](=O)[O-])c(N3CCN(S(=O)(=O)c4ccc(C(C)(C)C)cc4)CC3)cc21 | -98.4 | 4.61 µM [falling, full curve] | 4.61 µM [falling, full curve]
O=C(O)CCn1ncc2ccccc2c1=O | 23.2 |  | 
Cc1ccc(C(=O)OCC(=O)N2C(C)CCCC2C)s1 (stereo not drawn) | 8.21 |  | 0.116 µM [rising, partial curve, poor fit]
Cc1nc2ccc(NC(=O)NCCCO)cc2s1 | 11.9 |  | 
O=C(NCCCN1CCOCC1)c1cc(-c2ccc(F)cc2)nc2ccccc12 | 11.8 |  | 0.58 µM [falling, full curve]
Cc1ccc(CN2CCCC(C(=O)N3CCCC3)C2)cc1 (stereo not drawn) | 18 |  | 
COc1ccc2sc(N(CCCN(C)C)C(=O)c3ccc(S(=O)(=O)N4CCc5ccccc5C4)cc3)nc2c1 | -88 | 18.4 µM [falling, single point] | 20.6 µM [falling, single point]
CCCCCN(C(=O)COC(=O)Cc1c(C)nc2ccccc2c1C)c1c(N)n(CCCC)c(=O)[nH]c1=O | 32.8 | 16.4 µM [rising, single point] | 
COc1cccc(NC2=C(NCCO)C(=O)c3ccccc3C2=O)c1 | -46 | 9.2 µM [falling, partial curve] | 4.61 µM [falling, partial curve, poor fit]
COc1ccccc1C(=O)NNc1ncc(C)s1 | -15.3 | 6.51 µM [falling, single point] | 14.6 µM [falling, single point]
Fc1ccc(CSc2ccc3nnc(-c4ccccn4)n3n2)cc1 | 17.3 |  | 
CCN(CC)CCN(C(=O)C1=COCCO1)c1nc2c(OC)ccc(OC)c2s1 | 2.78 |  | 
O=c1[nH]nc(N/N=C/c2ccc(Cl)cc2Cl)c(=O)[nH]1 |  |  | 1.3 µM [rising, full curve, poor fit]
CN(C)C(=O)COC(=O)c1ccccc1NC(=O)c1ccco1 | 72.3 | 20.6 µM [rising, single point] | 
CSCCC(NC(=O)c1cccc(C)c1)C(=O)Nc1sccc1C(N)=O (stereo not drawn) |  | 0.731 µM [rising, single point] | 6.51 µM [rising, single point]
Cc1ccc(-c2csc(N3CCN(c4ccc5nc(-c6ccncc6)n(CCN6CCCCC6)c5c4)CC3)n2)cc1 | -17.7 |  | 6.51 µM [rising, single point]

Three structures from above, sorted by count of non-hydrogen atoms, rising:
Compound | cell number change [%] | AC50 [1] | AC50 [2]
CN=CC1=C(O)c2ccccc2C1=O | 25.1 |  | 3.66 µM [rising, full curve]
O=C(O)CCn1ncc2ccccc2c1=O | 23.2 |  | 
CN(C)C(=O)COC(=O)c1ccccc1NC(=O)c1ccco1 | 72.3 | 20.6 µM [rising, single point] | 

Carrying on.

Compound | cell number change [%] | AC50 [1] | AC50 [2]
COC(=O)c1cc(S(=O)(=O)N2CCOCC2)c(Cl)cc1N1CCOCC1 | -1.35 | 0.82 µM [falling, partial curve] | 20.6 µM [falling, partial curve]
COc1ccc(C(C(=O)NC2CCCC2)N(CCN2CCOCC2)C(=O)c2ccc(OC)c(OC)c2)cc1 (stereo not drawn) | -1.62 | 0.651 µM [falling, full curve, poor fit] | 
COc1ccc(CCNC(=O)/C=C\c2ccccc2)cc1OC | -57.7 | 7.31 µM [falling, partial curve] | 6.51 µM [falling, partial curve]
COc1ccc(O/C(=N\S(=O)(=O)c2ccccc2)c2ccccc2)cc1 | -86.6 | 6.51 µM [falling, full curve] | 29.1 µM [falling, single point]
Cc1nnn(C23CC4CC(CC(C(=O)NN)(C4)C2)C3)n1 | 34 |  | 20.6 µM [rising, single point]
Cc1cc2oc(=O)c(CC(=O)NCCCO)c(C)c2c2occ(C(C)(C)C)c12 | -60.2 | 14.6 µM [falling, partial curve] | 13 µM [falling, partial curve]
Fc1ccc(-c2nnc(-c3ccc(F)cc3)o2)cc1 |  |  | 29.1 µM [rising, single point]
COc1ccc(C)c(S(=O)(=O)Nc2ccc(OCC(=O)O)cc2)c1 |  |  | 1.46 µM [rising, partial curve]
Nc1ncnc(N2CCc3ccccc32)c1[N+](=O)[O-] |  |  | 0.731 µM [falling, single point]
COc1cccc(OC)c1C(=O)Nc1ccccc1C(=O)N1CCCCCC1 | 1.88 |  | 0.355 µM [rising, full curve, poor fit]
CC(C)(C)c1ccc(OCCNC(=O)c2ncn[nH]2)cc1 | -30.1 | 11.6 µM [falling, partial curve] | 29.1 µM [rising, single point]
CCOC(=O)C1(Cc2cccc(OC)c2)CCCN(C(=O)c2cc(CC(C)C)[nH]n2)C1 (stereo not drawn) | 2.65 |  | 29.1 µM [falling, single point]
COc1ccccc1CN(C(=O)c1ccco1)C(C(=O)NC1CCCC1)c1ccncc1 (stereo not drawn) | 6.35 |  | 
CCc1nnc(NC(=O)CCc2ccc(C)o2)s1 | 72.1 | 13 µM [rising, partial curve] | 
CCC(C(=O)NC1CCCCC1)n1c(SCc2ccc(F)cc2)nc2ccncc21 (stereo not drawn) | 16.9 |  | 0.13 µM [falling, full curve, poor fit]
COc1ccc(N2CCN(c3nc4c(C)cccn4c(=O)c3C=C(C#N)C#N)CC2)cc1 | -22.2 |  | 
CCc1nc(SCC(=O)c2ccc(Cl)s2)c2oc3ccccc3c2n1 | -19.2 |  | 
COc1ccc(OCC(O)CNC(C)c2ccccc2)cc1 (stereo not drawn) | 13.1 |  | 
Cc1ccc(OCCOCCN2CCCCC2)c([N+](=O)[O-])c1 | -1.19 | 5.17 µM [falling, partial curve] | 0.0146 µM [falling, full curve, poor fit]
CCCCOc1ccc(-c2[nH]ncc2C=O)cc1 | 5.88 | 0.82 µM [falling, full curve] | 0.82 µM [falling, full curve]

Compound | cell number change [%] | AC50 [1] | AC50 [2]
Cc1ccccc1N1C(=O)N(c2cccc(C(F)(F)F)c2)C2CS(=O)(=O)CC21 (stereo not drawn) | -0.471 |  | 0.92 µM [falling, full curve, poor fit]
CCCCC12CN3CCN(CC(C3)/C1=N\NC(=O)c1ccccc1N)C2 | 1.85 |  | 6.51 µM [rising, single point]
O=C(NCCc1nnc2ccc(SCC(=O)N3CCCC3)nn12)c1ccccc1 | -12.3 | 3.66 µM [rising, partial curve] | 
COc1cc(NC(=O)CN2C(=O)NC(C)(c3ccccc3)C2=O)c(C)cc1[N+](=O)[O-] (stereo not drawn) | -0.435 |  | 0.651 µM [rising, single point]
Cc1ccc(Nc2nc(N)nc(CN3CCN(C(=O)c4ccco4)CC3)n2)cc1Cl | -32.9 | 5.8 µM [falling, full curve, poor fit] | 
Cc1cccc(Nc2nc(NCCCN3CCOCC3)nc(N)c2[N+](=O)[O-])c1 | 24.1 |  | 0.103 µM [rising, full curve, poor fit]
O=C(OCCc1cc2ccccc2c(=O)o1)c1cccc(Br)c1 |  |  | 0.184 µM [falling, full curve]
Cc1c(C)n2c(SCC(=O)N3CCCC3)nnc2[nH]c1=O | -50.7 | 29.1 µM [falling, single point] | 1.03 µM [falling, full curve]
COc1cc(/C=C/c2nc3ccccc3c(=O)[nH]2)cc(Cl)c1O | 0.806 |  | 0.184 µM [falling, partial curve]
CCC1c2ccc(C)n2CCN1C(=O)Nc1ccccc1OC (stereo not drawn) | 38.2 | 23.1 µM [rising, single point] | 
FC(F)C(F)(F)c1cc(-c2ccccc2)n[nH]1 | 3.52 |  | 
Cc1ccccc1N1CCN(C2CCCN(C(=O)c3cc(C(C)C)[nH]n3)C2)CC1 (stereo not drawn) | 14.4 | 0.058 µM [rising, full curve, poor fit] | 29.1 µM [rising, single point]
Cc1ccc(OCc2cc(C(=O)NC(C)Cc3cccc(C)n3)no2)cn1 (stereo not drawn) | 4.53 |  | 2.91 µM [rising, single point]
CC(C)(C)OC(=O)[C@H](Cc1ccccc1)NC(=O)c1nc[nH]c1C(=O)NC1CCNCC1 | -10 |  | 
CC(C)COc1cccc(C(=O)NNC(=O)C2COc3ccccc3O2)c1 (stereo not drawn) |  |  | 16.4 µM [rising, partial curve]
CCCC(=O)NC(=S)Nc1sc2c(c1C(N)=O)CCC2 | 31.8 | 5.8 µM [rising, partial curve, poor fit] | 0.58 µM [rising, full curve]
CCCCCCn1c(N2CCN(c3ccccc3)CC2)nc2c1c(=O)[nH]c(=O)n2C | -30.5 | 16.4 µM [falling, single point] | 29.1 µM [falling, single point]
CCN(CC)c1ccc(NC(=O)c2ccc3c(c2)OCO3)cc1 | -34.3 | 20.6 µM [falling, partial curve] | 
Cc1cccc(/N=C/c2c(O)[nH]c3ccccc23)n1 | -41.9 | 20.6 µM [falling, single point] | 18.4 µM [falling, single point]

Reference: PubChem BioAssay AID2685 (National Center for Advancing Translational Sciences (NCATS), 2010)
